The values that follow come from PMC9962204.

These are yes or no findings as the source states them, for the method shown. Some results given as binding are weak or reduced against the parent protein; the word gives no strength. Sequences can lack the tags named with a protein.

Sequences and labels used below:
B1: Selenium-binding protein 2 (AtSBP2), Gal4 activation domain fusion in pGADT7 (protein, UniProt Q93WN0 1-487)
chain: MATETVLATAVSNGKSKGCCKSGPGYATPLAAMAGPREKLIYVTALYSGTGRDKPDYLATVDVDPSSPTFSSVIHRLKMPYIGDELHHTGWNSCSSCHGDASADRRYLVLPGLISGRIYAIDTKTDPKAPSLYKVVEPKEIAEKTGLAFPHTSHCLASGDMLVSCLGDKEGNAKGNGFLLLDSDFNVKSRWDKPGHGPLFGYDFWYQPRFKTMISTSWGAPKAFSKGFNLQHVADGLYGSHLHIYQWPEGEMKQIIDLGNTGLLPLEIRFLHDPSKDTGYVGSALSSNMIRFFKNSDDTWSHEVVISVKPLKVENWILPEMPGLITDFLISLDDRFFYFVNWLHGDIRQYNIEDPKNPVLTGQIWVGGLLQKGSPYKAVGEDGNTYQFDVPQIKGKSLRAGPQMIQLSLDGKRLYATNSLFSAWDRQFYPEIMEKGSHIIQIDVDTDKGGLTLNPDFFVDFGDEPDGPALAHEMRYPGGDCTSDIWI
B2: Selenium-binding protein 1 (AtSBP1), Gal4 activation domain fusion in pGADT7 (protein, UniProt O23264 1-490)
chain: MATETEVVAPVTVSNGGSKGCCKYGGPGYATPLAAMSGPSEKLIYVTAVYTGTGIDKPDYLATVDVDPSSPSYSSVIHRLPMPFVGDELHHSGWNSCSSCHGDASVDRRYLVLPSLISGRIYAIDTKENPRAPSLYKYVDPKEIADKTGLAFPHTAHCLATGEILVSCLGDEEGNAKGNGFLLLDSDFNIKNRWEKPGHSPLYGYDFWYQPRHKTMISTSWGAPKAFSKGFNLQHVADGLYGSHLHVYSWPGGEIKQLIDLGPTGLLPLEIRFLHDPSKDTGFVGSALSSNMIRFFKNSDETWSHEVVISVKPLKVENWILPEMPGLITDFLISLDDRFIYFVNWLHGDIRQYNIEDPKNPVLTGQIWVGGLLQKGSPVKAVGEDGNTFQFEVPQIKGKSLRGGPQMIQLSLDGKRLYATNSLFSAWDRQFYPEIMEKGSHIIQIDVDTEKGGLTINPDFFVDFGDEPDGPSLAHEMRYPGGDCTSDIWI
B3: Selenium-binding protein 3 (AtSBP3), Gal4 activation domain fusion in pGADT7 (protein, UniProt Q9LK38 1-480)
chain: MEAAMNNHDGDCCKSGPGYATPLLAMSGPREKLIYVAAIYTGTGQAKPDYLATVDVEPSSSTYSSVIHRLPMPYLEDELHHSGWNSCSSCYGDSSCERRYLILPSLLSGRIYVIDTKTNPREPSLHKFVDPAEVLEKTGLAYPHQPHCLASGDVLVSCLGDEDGNAEGSGFLLLDSEFNIKGRWEKDGNSPLYGYDFWYQPRHKTMISTSWGAPAAFTKGFDLKDVSDGLYGKHLHVYSWPQGELKQILDLGDTGLLPLEVRFLHEPDKATGFAGCALSSTLVRFFKNDDETWSHEVAISVEPLKVENWILPEMPGLITDFLISLDDRFLYCSNWLHGDIRQYNIEDPKTPVLTGQIHVGGLVQKGSLVLALGEEGKAFQFDVPKIKGQRLRGGPQMFQLSLDGKRLYVTNSLFSVWDRQFYPELVEKGSHMLQIDVDTDKGGLSINPNFFVDFGTEPDGPSLAHEMRYPGGDCTSDIWV

The test has as its target T1, AtSAH7 (allergen, Ole e 1 domain-containing family), Gal4 DNA-binding domain fusion in pGBKT7 (Arabidopsis thaliana) (UniProt Q9SZY5).
T1 sequence: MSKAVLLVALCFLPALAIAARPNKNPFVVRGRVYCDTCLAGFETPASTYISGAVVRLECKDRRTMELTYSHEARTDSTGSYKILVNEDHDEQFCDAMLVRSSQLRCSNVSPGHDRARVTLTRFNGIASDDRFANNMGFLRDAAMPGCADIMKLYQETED
Kind of test: two-hybrid; AtSAH7 in pGBKT7 (BD) against AtSBP1, AtSBP2, AtSBP3 and AtSBP1 deletions in pGADT7 (AD); S. cerevisiae Y2H Gold, co-transformed; growth on SD-Leu-Trp-His-Ade; more than 5 independent colonies.
Regarding B1, the binding result is given as “no binding”. For the molecule B2, the binding entry is “binds”. Then B3, with “no binding”.
